These are yes or no findings as the source states them, for the method shown. Some entries that bind do so weakly or less than the wild type.
Molecular target: T1, Gal4-hPXR (human) (UniProt O75469)
T1 sequence: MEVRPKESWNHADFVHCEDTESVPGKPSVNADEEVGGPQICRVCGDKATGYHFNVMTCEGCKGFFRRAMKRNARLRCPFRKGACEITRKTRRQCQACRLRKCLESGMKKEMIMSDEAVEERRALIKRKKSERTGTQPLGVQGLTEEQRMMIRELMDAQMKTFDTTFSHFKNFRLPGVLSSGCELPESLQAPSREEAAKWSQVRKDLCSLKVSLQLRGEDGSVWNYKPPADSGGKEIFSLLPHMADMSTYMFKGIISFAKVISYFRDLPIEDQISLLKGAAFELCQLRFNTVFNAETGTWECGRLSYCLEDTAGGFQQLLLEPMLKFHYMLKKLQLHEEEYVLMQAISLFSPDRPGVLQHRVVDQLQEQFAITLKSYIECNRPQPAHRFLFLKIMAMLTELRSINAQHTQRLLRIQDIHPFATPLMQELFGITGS
Assay: two-hybrid; mammalian two-hybrid in U2OS cells, 17Mx5-Glob-LUC reporter; cells treated with DMSO, SR12813, EE2, TNC or EE2+TNC

Amino acid sequences for entries named in this document (tags omitted). Residues count along the entry.
UniProt Q15596, residues 624-869: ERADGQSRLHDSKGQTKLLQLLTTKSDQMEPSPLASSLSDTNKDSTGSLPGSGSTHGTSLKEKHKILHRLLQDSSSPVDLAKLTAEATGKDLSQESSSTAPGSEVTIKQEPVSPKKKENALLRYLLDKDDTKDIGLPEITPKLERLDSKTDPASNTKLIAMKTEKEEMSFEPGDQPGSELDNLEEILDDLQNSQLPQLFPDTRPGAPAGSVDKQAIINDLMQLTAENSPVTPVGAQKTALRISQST

binding: binds
Substance: VP16 (activation domain)-TIF2 (amino acids 624-869 containing three LXXLL motifs) (from UniProt Q15596 624-869) (domain or fragment)
